# Results published in publication PMC5983848.
# Sequences of proteins named here, by UniProt entry; tags and fusion partners are left off. A change or cut given only in a name is not applied to a line headed by its entry.
# UniProt P43354: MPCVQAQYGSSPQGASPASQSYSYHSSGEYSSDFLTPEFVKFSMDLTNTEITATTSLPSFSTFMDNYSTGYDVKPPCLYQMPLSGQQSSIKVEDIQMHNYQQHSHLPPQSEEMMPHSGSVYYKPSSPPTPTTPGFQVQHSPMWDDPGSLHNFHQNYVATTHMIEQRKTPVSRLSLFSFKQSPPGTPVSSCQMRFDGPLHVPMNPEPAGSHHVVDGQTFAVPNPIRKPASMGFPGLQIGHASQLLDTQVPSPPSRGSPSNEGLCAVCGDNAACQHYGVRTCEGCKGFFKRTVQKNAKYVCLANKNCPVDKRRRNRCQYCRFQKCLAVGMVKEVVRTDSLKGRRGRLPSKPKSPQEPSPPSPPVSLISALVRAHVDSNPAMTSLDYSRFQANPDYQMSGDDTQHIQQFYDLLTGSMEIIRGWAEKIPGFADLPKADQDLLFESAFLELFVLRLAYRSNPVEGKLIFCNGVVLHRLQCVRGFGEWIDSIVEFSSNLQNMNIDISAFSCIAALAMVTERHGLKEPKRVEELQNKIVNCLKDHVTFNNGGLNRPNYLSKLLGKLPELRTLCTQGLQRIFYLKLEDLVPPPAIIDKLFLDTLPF
# UniProt P09874: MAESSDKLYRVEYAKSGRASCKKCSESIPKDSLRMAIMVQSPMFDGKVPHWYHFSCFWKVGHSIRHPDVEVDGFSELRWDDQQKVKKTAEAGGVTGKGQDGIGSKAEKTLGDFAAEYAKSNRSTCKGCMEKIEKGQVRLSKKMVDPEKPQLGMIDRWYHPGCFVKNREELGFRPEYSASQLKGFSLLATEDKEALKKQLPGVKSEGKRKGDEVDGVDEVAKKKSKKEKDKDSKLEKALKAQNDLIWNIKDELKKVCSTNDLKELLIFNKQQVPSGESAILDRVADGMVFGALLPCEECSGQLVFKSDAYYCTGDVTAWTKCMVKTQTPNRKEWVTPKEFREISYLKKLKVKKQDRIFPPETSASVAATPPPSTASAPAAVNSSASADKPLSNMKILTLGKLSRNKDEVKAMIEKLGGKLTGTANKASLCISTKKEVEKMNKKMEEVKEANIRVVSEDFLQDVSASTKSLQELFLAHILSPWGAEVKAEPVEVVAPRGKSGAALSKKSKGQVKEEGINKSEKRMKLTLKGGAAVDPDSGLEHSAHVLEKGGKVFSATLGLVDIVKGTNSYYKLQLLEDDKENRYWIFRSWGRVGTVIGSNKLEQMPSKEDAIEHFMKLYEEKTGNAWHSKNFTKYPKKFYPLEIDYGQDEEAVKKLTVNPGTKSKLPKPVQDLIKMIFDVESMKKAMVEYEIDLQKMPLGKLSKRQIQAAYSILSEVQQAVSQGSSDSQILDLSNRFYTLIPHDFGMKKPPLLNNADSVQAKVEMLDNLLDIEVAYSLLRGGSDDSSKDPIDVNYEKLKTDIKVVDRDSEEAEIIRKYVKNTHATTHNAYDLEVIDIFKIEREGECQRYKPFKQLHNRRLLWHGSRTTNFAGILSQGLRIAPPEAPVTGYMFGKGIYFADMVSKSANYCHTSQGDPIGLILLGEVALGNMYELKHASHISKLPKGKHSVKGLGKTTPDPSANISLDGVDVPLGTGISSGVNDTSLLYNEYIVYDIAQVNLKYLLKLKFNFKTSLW
# Results are given in words; binding and its absence hold for the method and conditions named. Binding seen in cells or lysates may run through a third protein. Some binding calls cover weakened binding; strength is not graded here. For some of these results: Sequences can lack the tags named with a protein.
# Columns and labels:
# [1] = target: FLAG-Nurr1, expressed in 293F cells (UniProt P43354); assay: co-IP; 293F cells exogenously expressing FLAG-Nurr1 and/or HA-PARP1, immunoprecipitation followed by western blot
# [2] = target: FLAG-Nurr1, in vitro translated (UniProt P43354); assay: pull-down; in vitro-translated FLAG-tagged proteins mixed with in vitro-translated HA-PARP1 for 1 h at room temperature, immunoprecipitated with anti-FLAG M2 agarose, western blot
# [3] = target: T1, FLAG-tagged malonyl-CoA (coenzyme A) decarboxylase (MLYCD), in vitro translated (UniProt O95822); assay: as above
# T1 sequence: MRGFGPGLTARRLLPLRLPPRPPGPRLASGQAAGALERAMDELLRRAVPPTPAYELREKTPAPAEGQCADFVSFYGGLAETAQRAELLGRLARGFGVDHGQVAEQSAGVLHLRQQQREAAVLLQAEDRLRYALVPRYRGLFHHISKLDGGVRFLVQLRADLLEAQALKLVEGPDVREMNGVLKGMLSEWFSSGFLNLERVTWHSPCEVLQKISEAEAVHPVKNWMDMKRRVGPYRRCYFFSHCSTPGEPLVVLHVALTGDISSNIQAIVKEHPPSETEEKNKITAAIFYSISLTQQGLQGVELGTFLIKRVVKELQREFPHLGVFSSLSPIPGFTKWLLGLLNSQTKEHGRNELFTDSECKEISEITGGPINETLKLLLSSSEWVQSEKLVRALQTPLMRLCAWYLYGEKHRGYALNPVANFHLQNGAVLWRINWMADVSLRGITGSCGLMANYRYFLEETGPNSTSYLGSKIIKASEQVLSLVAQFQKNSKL
# [4] = target: poly(ADP-ribose) polymerase 1 (PARP1), endogenous in H295R cells (human (endogenous in H295R)) (UniProt P09874); assay: co-IP; lysates of H295R cells stimulated with or without 100 nM angiotensin II for 6 h, endogenous proteins, western blot with anti-Nurr1 and anti-PARP1; rabbit IgG immunoprecipitates as negative control
substance,measurement,setting,value
"HA-PARP1, expressed in 293F cells (from UniProt P09874 1-1014) (enzyme)",binding,[1],binds
"HA-PARP1, in vitro translated (from UniProt P09874 1-1014) (enzyme)",binding,[2],binds
same,binding,[3],no binding
"Nurr1 (NR4A2), endogenous in H295R cells (from UniProt P43354 1-598)",binding,[4],binds
